PubChem BioAssay AID1259284, Sanger Institute – 2017
Shown is a random part of 794 deposited reagents. Over the whole deposit, 16 (2%) were called active. 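Calls concern knock-down without drug only; drug synergy was judged apart, with scores above 0.15 taken as synergy.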 No viability above 1 is reported: the scale is capped. No sequences are given here. Not stated in the record: the amount of reagent, the time to read-out.

Screen: 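Kinase genes needed for growth or acting with cancer drugs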 (primary screen)
Cell system: SW48 human colorectal cancer cells
Reagent: siRNA pool against human genes
Conditions: anchor drug BYL719 at 1 µM, cetuximab at 5 µg/ml or trametinib at 10 nM, or DMSO vehicle alone
Measured: 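Viability scaled to non-targeting control pool, robust z-score from controls, and synergy scores for each drug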
Direction: robust z-score, no drug: higher = more cells survive knock-down; viability, no drug: higher = more viable cells; synergy with BYL719 and synergy with trametinib and synergy with cetuximab: higher = stronger combined killing with drug
Call rule: 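a knock-down is essential if viability without drug gives a robust z-score under -3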
Meaning of the calls: active = essential without drug; inactive = no change without drug

no.	gene knocked down	robust z-score, no drug	viability, no drug (fraction of control)	synergy with BYL719	synergy with trametinib	synergy with cetuximab	Outcome
1	TAF1L	0.426	1	-0.187	-0.0378	-0.165	inactive
2	HUS1	0.426	1	-0.22	-0.126	0.00651	inactive
3	HUNK	0.426	1	0.018	0.0795	0.0992	inactive
4	ITPKB	0.426	1	-0.21	-0.273	-0.165	inactive
5	CSNK1G1	0.426	1	-0.281	-0.13	-0.165	inactive
6	MAP2K1	0.426	1	-0.146	-0.22	0.0202	inactive
7	RIOK3	0.426	1	-0.0841	-0.0201	-0.0428	inactive
8	TSSK1B	-2.04	0.789	-0.199	-0.0323	-0.0337	inactive
9	FLT3	0.426	1	-0.245	0.0482	-0.0968	inactive
10	MAP3K20	0.426	1	-0.367	-0.0993	-0.165	inactive
11	NIM1K	0.426	1	0.0125	0.0611	-0.101	inactive
12	PTK6	0.426	1	-0.00245	0.00984	0.00652	inactive
13	PAK2	0.426	1	-0.0433	-0.000849	-0.00766	inactive

Entries above whose target name begins with H or h:
gene knocked down	robust z-score, no drug	viability, no drug (fraction of control)	synergy with BYL719	synergy with trametinib	synergy with cetuximab	Outcome
HUS1	0.426	1	-0.22	-0.126	0.00651	inactive
HUNK	0.426	1	0.018	0.0795	0.0992	inactive

The results go on.
no.	gene knocked down	robust z-score, no drug	viability, no drug (fraction of control)	synergy with BYL719	synergy with trametinib	synergy with cetuximab	Outcome
14	TWF2	0.426	1	-0.134	-0.153	-0.135	inactive
15	PDGFRB	-1.73	0.815	-0.0849	-0.0431	-0.0932	inactive
16	SRPK1	0.426	1	-0.228	0.0038	0.0106	inactive
17	ACVR2B	0.426	1	-0.165	-0.196	-0.165	inactive
18	SMG1	-1.83	0.806	-0.156	-0.13	-0.327	inactive
19	FN1	0.426	1	-0.167	-0.17	-0.165	inactive
20	TLK2	0.426	1	-0.367	-0.248	-0.165	inactive
